At least one structure is not confirmed: it was looked up by name or label, or the drawing left a doubt.
Test system: adult male CF-1 mice
Assay: Foot electroshock stress induced cGMP elevation model for anxiety
Type: in vivo
Details: intraperitoneal
Excerpt: The foot electroshock stress induced cGMP elevation model for anxiety is an established anxiety model, wherein stress from an unavoidable electroshock to the feet induces an elevation in cerebellar cGMP levels, which elevation is reduced or blocked by preadministration of anxiolytic compounds (Sethy and Oien (1991), Pharmacology Biochemistry & Behavior, vol. 39, pg. 379-382). Briefly, adult male CF-1 mice (25-30 g Harlan, Indianapolis, Ind.) are housed under a 12-hr light/dark cycle in a temperature and humidity controlled environment. Mice are habituated to the environment for at least 3 days and all studies are carried out between 9:00 AM and 12:00 noon to reduce the effects of diurnal fluctuations. Test mice are given a single intraperitoneal injection of test compound or control (vehicle is 3% DMSO, 20% emulphor stock, 10% lactic acid stock) and are sacrificed approximately 30 min. after dosing, using a beam of microwave radiation (microwave fixation system model GA5013; Gerling Applied Engineering, Modesto, Calif.) focused on the skull for 0.5 sec. at high power setting. This method preserves tissue cGMP content. […]
For each animal, cGMP levels are normalized to wet tissue weight and used to compute group averages and S.E.M. (typically 4-6 mice per group). All data are analyzed on the log scale to correct problems with heterogeneity of variance. […]

## Cn1cc(CN2CCN(c3nccnc3-c3cc(F)c(F)c(F)c3)CC2)cn1.O=C(O)/C=C/C(=O)O [Example 189, 4-(1-Methyl-1H-pyrazol-4-ylmethyl)-3′-(3,4,5-trifluorophenyl)-3,4,5,6-tetrahydro-2H-[1,2′]bipyrazinefumarate]
  stress-induced elevation of cGMP: significantly reduce the stress-induced elevation of cGMP

Source: patent US8202873B2, “2-[4-(pyrazol-4-ylalkyl)piperazin-1-yl]-3-phenyl pyrazines as 5-HT7 receptor antagonists” (Eli Lilly and Company, priority 2007, dated 2012)
